Values of other authors, collected in patent US10765638B2, “Particle formulation with polycation complex” (Yale University, priority 2017, dated 2020).
At least one compound was matched to its structure with a doubt left.

How the values were obtained:
Conditions in all cases: cancerrxgene.org, read-out: Afatinib (IC50); cited from earlier work
[1] = test system: RERF-LC-MS
[2] = test system: NCI-H2110
[3] = test system: A-427
[4] = test system: NCI-H1838
[5] = test system: IST-SL2
[6] = test system: EMC-BAC-1
[7] = test system: RERF-LC-Sq1
[8] = test system: PC-3 [JPC-3]
[9] = test system: Calu-3

Structure (SMILES): CN(C)C/C=C/C(=O)Nc1cc2c(Nc3ccc(F)c(Cl)c3)ncnc2cc1O[C@H]1CCOC1 [Afatinib, afatinib]
- IC50 [1]: 3580 nM
- IC50 [2]: 450 nM
- IC50 [3]: 5860 nM
- IC50 [4]: 630 nM
- IC50 [5]: 2940 nM
- IC50 [6]: 40 nM
- IC50 [7]: 150 nM
- IC50 [8]: 20 nM
- IC50 [9]: 550 nM
